{
  "sequences": {"note": "Sequences of proteins named here, by UniProt entry; tags and fusion partners are left off. A change or cut given only in a name is not applied to a line headed by its entry.", "UniProt P49591": "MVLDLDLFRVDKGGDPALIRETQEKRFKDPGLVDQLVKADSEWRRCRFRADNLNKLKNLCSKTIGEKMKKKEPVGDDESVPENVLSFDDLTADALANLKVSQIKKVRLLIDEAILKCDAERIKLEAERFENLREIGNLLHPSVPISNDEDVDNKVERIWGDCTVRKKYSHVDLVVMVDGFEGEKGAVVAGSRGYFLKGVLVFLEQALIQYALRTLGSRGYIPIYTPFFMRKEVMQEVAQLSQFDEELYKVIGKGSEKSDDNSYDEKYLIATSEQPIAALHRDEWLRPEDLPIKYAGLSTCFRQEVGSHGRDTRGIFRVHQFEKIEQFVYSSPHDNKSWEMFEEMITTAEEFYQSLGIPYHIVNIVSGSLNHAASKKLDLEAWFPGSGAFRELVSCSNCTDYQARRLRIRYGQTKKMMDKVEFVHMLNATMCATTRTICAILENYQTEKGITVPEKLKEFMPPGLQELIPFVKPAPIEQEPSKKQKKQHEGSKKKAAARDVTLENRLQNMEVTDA"},
  "source": "paper PMC4057782",
  "key": {"[1]": {"molecular_target": "SerRS delta insertion I del75-97 (Homo sapiens) (UniProt P49591)", "experiment": "EMSA", "settings": "dramatically weakened; EMSA: 20 mM Tris-HCl pH 8.0, 60 mM KCl, 5 mM MgCl2, 0.1 mg/ml BSA, 10 ng/ul poly(dG-dC), 1 mM DTT, 30 min, room temperature; recombinant protein; label: 5' 32P; letters put together from the description"}, "[2]": {"molecular_target": "SerRS delta insertion II del254-261 (Homo sapiens) (UniProt P49591)", "experiment": "EMSA", "settings": "dramatically weakened; EMSA: 20 mM Tris-HCl pH 8.0, 60 mM KCl, 5 mM MgCl2, 0.1 mg/ml BSA, 10 ng/ul poly(dG-dC), 1 mM DTT, 30 min, room temperature; recombinant protein; label: 5' 32P; letters put together from the description"}},
  "note": "The exact form of at least one protein or probe is not confirmed. Weaker means in comparison with the reference protein, sequence or condition of that experiment.",
  "data": [
    {"sequence": "GGCGGGGCGGAGCCATGCGCCCCCCCC (double strand) [VEGFA promoter 27-bp (-62 to -36)]", "values": [
      {"measurement": "binding result", "setting": "[1]", "result": "binds more weakly"},
      {"measurement": "binding result", "setting": "[2]", "result": "binds more weakly"}
    ]}
  ]
}
